# The supplement of paper PMC12067093, “Discovery and optimisation of a covalent ligand for TRIM25 and its application to targeted protein ubiquitination” (Chemical Science, 2025)
# The chains behind the UniProt entries cited, without tags or fusion partners. Where a name states a change or a piece, a line headed by the entry shows the natural chain unless it says otherwise.
# UniProt O95639, whole entry, looked up: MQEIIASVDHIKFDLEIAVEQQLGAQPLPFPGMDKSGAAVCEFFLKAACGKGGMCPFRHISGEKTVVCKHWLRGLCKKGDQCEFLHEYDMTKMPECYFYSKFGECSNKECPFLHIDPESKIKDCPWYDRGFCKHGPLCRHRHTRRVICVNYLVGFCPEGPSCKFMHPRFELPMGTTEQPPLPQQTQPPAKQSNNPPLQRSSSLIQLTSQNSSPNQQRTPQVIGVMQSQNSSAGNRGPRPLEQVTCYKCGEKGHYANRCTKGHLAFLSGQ
# UniProt Q9P2I0: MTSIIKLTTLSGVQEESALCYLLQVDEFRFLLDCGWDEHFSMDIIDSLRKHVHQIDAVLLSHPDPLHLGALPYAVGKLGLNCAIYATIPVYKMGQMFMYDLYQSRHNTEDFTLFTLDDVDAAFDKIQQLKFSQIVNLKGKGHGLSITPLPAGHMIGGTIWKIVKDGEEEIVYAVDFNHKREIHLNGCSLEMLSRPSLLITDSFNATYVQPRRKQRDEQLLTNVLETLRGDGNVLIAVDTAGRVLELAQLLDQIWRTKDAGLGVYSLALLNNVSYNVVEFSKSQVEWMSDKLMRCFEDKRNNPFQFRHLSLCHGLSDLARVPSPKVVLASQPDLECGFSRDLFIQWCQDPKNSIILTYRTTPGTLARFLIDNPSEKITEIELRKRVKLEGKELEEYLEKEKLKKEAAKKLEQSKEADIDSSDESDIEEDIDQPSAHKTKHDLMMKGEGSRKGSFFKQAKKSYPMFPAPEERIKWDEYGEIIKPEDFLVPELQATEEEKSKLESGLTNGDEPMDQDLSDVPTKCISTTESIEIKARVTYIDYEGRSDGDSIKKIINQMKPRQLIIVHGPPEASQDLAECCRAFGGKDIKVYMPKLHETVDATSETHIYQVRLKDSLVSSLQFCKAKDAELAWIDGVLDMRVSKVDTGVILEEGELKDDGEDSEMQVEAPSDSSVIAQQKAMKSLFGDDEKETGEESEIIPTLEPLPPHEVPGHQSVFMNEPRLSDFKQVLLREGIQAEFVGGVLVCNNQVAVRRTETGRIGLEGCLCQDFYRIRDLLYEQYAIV
# UniProt O75131: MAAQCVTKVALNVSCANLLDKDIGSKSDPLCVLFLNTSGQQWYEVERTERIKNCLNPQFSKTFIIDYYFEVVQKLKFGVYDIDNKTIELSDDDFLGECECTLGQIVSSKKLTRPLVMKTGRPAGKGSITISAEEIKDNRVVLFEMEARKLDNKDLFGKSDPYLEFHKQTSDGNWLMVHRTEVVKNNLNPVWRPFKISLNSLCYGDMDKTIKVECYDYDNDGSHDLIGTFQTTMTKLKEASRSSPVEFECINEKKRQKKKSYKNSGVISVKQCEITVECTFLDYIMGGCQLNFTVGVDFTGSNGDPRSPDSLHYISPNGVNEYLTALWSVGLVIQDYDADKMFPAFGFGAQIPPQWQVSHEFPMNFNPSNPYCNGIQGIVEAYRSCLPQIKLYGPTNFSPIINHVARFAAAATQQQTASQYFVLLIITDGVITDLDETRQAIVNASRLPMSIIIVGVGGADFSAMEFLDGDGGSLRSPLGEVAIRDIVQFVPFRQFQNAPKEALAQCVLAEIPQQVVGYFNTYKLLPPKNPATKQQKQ
# UniProt Q9BR76, whole entry, looked up: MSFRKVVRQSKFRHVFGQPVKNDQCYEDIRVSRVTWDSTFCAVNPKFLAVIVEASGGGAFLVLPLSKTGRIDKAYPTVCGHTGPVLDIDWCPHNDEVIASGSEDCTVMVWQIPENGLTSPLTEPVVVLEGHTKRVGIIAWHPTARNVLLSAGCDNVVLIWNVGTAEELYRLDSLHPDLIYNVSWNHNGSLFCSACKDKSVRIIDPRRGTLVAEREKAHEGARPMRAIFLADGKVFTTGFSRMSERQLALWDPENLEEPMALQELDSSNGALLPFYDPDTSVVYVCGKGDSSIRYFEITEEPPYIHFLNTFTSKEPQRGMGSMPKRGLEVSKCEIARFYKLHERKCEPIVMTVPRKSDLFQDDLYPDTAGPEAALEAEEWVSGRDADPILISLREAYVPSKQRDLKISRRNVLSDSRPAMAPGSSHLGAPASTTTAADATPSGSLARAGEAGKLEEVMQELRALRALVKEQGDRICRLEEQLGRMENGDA
# UniProt P49711: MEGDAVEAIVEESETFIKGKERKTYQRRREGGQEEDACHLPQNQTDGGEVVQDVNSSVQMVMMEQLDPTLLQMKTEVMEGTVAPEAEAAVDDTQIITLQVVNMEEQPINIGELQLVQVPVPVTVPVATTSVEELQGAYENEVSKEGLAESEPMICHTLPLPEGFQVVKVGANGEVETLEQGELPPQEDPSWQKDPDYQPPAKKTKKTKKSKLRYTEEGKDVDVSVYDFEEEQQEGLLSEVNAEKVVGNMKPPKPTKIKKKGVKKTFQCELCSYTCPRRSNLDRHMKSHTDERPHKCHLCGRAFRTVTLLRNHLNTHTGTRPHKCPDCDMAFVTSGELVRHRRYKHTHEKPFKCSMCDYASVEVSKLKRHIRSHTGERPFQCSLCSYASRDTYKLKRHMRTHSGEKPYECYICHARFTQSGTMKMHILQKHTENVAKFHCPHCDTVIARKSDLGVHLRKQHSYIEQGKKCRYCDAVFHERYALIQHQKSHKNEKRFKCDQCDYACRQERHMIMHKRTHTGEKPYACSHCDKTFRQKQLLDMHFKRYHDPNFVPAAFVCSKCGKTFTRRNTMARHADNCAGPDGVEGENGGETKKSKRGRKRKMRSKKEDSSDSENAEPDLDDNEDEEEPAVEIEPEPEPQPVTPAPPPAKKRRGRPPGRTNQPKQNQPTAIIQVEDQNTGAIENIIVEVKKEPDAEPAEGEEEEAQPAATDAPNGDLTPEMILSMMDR
# UniProt P50238: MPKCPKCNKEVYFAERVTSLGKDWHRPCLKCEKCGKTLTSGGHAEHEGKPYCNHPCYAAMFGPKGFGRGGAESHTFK
# UniProt O75534: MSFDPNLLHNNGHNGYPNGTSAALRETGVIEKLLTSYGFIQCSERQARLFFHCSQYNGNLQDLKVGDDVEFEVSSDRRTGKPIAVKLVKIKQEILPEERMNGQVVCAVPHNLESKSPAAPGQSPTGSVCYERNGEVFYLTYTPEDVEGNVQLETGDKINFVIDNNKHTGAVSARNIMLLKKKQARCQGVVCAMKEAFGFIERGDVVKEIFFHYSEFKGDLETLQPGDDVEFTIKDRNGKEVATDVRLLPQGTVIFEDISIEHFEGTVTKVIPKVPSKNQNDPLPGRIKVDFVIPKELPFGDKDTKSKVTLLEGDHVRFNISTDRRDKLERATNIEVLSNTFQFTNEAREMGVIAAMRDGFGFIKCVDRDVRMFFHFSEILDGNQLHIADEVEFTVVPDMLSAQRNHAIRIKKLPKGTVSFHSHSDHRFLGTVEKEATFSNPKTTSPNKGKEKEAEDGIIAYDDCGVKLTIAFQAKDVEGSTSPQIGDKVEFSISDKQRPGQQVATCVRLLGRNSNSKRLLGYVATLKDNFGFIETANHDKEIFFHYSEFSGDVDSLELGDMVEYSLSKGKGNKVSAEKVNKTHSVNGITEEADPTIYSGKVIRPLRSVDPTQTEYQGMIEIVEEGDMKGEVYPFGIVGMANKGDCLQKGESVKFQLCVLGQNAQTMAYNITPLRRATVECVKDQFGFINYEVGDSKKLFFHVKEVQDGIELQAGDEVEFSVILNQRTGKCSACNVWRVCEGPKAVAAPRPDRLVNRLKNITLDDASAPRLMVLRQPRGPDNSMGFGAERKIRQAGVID
# UniProt P50416: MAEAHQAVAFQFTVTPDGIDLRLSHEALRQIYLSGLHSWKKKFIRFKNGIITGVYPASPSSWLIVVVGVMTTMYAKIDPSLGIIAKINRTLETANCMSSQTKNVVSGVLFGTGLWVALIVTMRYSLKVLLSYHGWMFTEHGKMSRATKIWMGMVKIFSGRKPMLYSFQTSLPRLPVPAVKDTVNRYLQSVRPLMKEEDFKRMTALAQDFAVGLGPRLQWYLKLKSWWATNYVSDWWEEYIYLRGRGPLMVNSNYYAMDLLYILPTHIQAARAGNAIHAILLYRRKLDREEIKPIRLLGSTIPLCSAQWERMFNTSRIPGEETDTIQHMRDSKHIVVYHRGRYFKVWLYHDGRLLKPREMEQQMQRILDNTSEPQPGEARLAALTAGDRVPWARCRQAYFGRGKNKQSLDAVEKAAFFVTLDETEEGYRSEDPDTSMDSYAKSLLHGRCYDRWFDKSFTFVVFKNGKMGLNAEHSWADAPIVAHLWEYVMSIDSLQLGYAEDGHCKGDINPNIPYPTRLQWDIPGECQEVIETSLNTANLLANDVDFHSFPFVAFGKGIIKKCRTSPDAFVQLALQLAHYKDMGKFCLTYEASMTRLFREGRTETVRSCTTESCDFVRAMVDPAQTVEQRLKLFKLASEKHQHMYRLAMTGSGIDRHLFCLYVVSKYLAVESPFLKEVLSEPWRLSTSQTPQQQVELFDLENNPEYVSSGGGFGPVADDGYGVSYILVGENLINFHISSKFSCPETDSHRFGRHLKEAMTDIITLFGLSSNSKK
# UniProt P41240: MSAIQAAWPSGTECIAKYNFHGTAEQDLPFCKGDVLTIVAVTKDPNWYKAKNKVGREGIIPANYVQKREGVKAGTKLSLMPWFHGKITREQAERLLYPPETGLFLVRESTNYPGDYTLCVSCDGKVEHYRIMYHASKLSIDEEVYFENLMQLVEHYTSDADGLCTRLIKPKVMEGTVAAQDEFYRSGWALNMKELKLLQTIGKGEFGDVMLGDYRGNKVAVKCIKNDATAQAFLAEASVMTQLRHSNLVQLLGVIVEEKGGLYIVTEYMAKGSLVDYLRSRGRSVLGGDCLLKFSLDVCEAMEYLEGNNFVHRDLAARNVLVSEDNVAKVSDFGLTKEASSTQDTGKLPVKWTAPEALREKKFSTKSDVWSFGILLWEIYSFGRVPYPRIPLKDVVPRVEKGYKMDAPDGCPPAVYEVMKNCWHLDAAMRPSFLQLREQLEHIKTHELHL
# UniProt P31146: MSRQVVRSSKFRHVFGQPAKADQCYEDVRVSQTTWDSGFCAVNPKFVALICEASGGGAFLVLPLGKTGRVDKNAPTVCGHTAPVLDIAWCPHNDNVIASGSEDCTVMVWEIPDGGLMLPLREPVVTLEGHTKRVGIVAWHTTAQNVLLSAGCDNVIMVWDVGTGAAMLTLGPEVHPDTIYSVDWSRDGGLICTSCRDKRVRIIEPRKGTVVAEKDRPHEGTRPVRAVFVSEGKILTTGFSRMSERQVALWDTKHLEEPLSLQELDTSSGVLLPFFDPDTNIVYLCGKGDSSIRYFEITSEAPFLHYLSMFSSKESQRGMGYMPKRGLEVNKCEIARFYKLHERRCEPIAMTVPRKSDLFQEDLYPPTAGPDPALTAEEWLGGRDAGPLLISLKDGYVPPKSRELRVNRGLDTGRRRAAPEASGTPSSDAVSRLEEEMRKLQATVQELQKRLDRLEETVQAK
# UniProt Q8WYA6: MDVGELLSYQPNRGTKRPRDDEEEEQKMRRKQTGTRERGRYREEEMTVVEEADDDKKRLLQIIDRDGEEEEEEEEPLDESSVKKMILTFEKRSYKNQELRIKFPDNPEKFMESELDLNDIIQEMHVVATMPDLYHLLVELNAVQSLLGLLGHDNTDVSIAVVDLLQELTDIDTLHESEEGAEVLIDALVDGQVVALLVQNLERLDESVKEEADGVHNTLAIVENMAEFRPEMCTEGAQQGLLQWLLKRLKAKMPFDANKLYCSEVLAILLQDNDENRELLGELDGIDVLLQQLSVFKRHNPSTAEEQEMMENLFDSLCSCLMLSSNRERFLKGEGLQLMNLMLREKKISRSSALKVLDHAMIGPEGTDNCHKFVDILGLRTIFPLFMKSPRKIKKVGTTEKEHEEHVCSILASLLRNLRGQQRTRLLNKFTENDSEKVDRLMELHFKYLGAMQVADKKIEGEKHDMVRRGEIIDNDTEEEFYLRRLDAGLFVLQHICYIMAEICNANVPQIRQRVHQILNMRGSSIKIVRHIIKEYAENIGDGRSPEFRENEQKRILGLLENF
# UniProt P17812: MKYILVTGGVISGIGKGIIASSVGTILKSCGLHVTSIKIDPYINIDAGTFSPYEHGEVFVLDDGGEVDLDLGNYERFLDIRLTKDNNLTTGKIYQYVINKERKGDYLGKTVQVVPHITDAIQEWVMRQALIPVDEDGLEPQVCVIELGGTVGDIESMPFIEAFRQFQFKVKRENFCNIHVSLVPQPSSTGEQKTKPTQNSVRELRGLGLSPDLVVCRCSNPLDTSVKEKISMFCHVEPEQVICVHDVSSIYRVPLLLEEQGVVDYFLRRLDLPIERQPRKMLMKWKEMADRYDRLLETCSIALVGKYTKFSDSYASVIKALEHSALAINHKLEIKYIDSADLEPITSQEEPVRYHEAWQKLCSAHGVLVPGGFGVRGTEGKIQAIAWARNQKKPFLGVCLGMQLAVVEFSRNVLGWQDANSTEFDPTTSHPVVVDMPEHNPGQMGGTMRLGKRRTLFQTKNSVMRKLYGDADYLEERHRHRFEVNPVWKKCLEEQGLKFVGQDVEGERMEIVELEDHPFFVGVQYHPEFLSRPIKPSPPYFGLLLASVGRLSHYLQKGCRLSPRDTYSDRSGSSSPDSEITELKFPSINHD
# The other results are listed elsewhere or left out.
# Compound: Cc1cc(ccc1-c1ccccc1)C(=O)N1CCCN(CC1)C(=O)CCl [compound 10]
# Experiment: probe-labelled cysteine peptide fold change vs DMSO (competition) (log2 fold change); higher = less target engagement (more negative = stronger competition)
# Conditions: 50 µM; THP-1; incubation time: 4 h
# 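Note: competitive profiling in live THP-1 cells: cysteine peptides tagged with an iodoacetamide desthiobiotin (IA-DTB) probe, intensity after compound treatment relative to DMSO-treated cells.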
row,Target,probe-labelled cysteine peptide fold change
1,CSTF2_P33240_62_GYGFCEYQDQETALSAMR (UniProt P33240),-0.43
2,CPSF4_O95639_110_ECPFLHIDPESK (UniProt O95639),-0.19
3,CPSF2_Q9P2I0_522_CISTTESIEIK (UniProt Q9P2I0),-0.0672
4,CPNE3_O75131_15_VALNVSCANLLDK (UniProt O75131),-0.00401
5,CORO1B_Q9BR76_192+195_LDSLHPDLIYNVSWNHNGSLFCSACK (UniProt Q9BR76),-0.3
6,CTCF_P49711_439+442_FHCPHCDTVIAR (UniProt P49711),-0.429
7,CRIP1_P50238_52_PYCNHPCYAAMFGPK (UniProt P50238),-0.292
8,CRYBG3_Q68DQ2_2762_SLKPIDYVFEEPSISLFALEHCEGR (UniProt Q68DQ2),-0.101
9,CSDE1_O75534_191_CQGVVCAMK (UniProt O75534),-0.192
10,CPT1A_P50416_608_SCTTESCDFVR (UniProt P50416),0.219
11,CSK_P41240_164_LSIDEEVYFENLMQLVEHYTSDADGLCTR (UniProt P41240),0.0201
12,CORO1A_P31146_40_VSQTTWDSGFCAVNPK (UniProt P31146),-0.00847
13,CTNNBL1_Q8WYA6_370_VLDHAMIGPEGTDNCHK (UniProt Q8WYA6),-0.134
14,CTPS1_P17812_218_CSNPLDTSVK (UniProt P17812),-0.198
15,CPNE2_Q96FN4_388+401_VSHEFAINFNPTNPFCSGVDGIAQAYSACLPHIR (UniProt Q96FN4),0.37
16,CPNE2_Q96FN4_265_DSVPLEFECINPK (UniProt Q96FN4),-0.295
